# Primary screen of a compound library

Chains of the proteins cited; added tags and fusions are not shown. Residues count along the entry.
UniProt P9WPC5, whole entry: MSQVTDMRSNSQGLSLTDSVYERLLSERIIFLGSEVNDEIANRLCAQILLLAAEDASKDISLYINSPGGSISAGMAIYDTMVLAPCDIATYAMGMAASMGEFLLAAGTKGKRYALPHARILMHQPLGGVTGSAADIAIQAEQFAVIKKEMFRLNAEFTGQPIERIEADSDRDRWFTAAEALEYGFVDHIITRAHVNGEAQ
UniProt P9WPC3, whole entry partner: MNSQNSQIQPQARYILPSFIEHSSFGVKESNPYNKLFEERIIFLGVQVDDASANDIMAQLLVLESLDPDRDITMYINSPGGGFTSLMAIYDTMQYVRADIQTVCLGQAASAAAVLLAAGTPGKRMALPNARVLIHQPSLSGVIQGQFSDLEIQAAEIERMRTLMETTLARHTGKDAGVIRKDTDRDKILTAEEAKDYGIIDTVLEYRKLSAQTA
UniProt P9WNZ1, whole entry: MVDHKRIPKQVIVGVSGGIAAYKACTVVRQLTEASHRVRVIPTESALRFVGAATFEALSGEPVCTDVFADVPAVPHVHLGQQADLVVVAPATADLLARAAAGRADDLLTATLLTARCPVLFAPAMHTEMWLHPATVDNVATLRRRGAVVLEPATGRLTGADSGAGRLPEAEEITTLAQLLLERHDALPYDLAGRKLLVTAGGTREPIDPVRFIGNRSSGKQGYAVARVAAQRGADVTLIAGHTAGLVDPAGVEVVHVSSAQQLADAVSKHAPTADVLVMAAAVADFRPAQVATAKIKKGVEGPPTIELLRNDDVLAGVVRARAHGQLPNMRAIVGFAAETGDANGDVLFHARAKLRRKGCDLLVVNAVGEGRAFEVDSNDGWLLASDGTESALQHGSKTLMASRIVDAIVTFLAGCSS
UniProt A4I591, 1-473: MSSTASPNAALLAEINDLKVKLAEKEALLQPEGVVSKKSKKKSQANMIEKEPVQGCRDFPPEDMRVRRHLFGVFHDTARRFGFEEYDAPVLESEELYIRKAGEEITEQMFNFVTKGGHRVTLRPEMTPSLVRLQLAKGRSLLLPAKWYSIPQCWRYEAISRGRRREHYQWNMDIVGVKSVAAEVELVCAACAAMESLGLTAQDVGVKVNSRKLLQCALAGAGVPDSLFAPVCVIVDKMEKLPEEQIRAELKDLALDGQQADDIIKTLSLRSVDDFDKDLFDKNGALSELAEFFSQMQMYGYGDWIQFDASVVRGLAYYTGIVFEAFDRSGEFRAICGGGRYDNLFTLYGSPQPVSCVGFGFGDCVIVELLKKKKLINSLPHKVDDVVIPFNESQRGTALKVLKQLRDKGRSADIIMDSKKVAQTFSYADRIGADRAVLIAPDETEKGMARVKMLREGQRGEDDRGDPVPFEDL

Source: ChEMBL document CHEMBL3988442, “University of Dundee, Small-Polar-MMV Screening Library” (2021).

A: 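ClpP1P2, Mycobacterium tuberculosis (UniProt P9WPC5 and UniProt P9WPC3). Protease assay of ClpP1P2, read by the AMC dye that it sets free. Tested at 50 µM. Higher reads as stronger inhibition, judged from the few compounds that gave an IC50. Most other retested compounds had strongly negative values. About 69,000 compounds were tested under these conditions; 0.015% (about 10) showed 50% or more at least once.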
B: 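Coenzyme A biosynthesis protein CoaBC, Mycobacterium tuberculosis (UniProt P9WNZ1). Enzyme assay of CoaBC with a phosphate dye (Biomol Green) read at 650 nm. Tested at 30 µM. Higher reads as stronger inhibition, judged from the few compounds that gave an IC50. Most strong results did not repeat in a second test. Of about 67,000 compounds tested this way, about 40 (0.06%) reached 50% or more in at least one test.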
C: 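Cell assay of Leishmania donovani living inside macrophages; the read-out is not stated. Tested at 30 µM. Direction is inferred from retests: higher values go with stronger inhibition. Size under these conditions: about 69,000 compounds, about 1,000 of them at 50% or above in at least one test.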
D: 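Histidine-tRNA ligase, Leishmania infantum (UniProt A4I591). Enzyme assay of histidyl-tRNA synthetase; the read-out is not stated. Tested at 30 µM. Higher reads as stronger inhibition (inferred: compounds with an IC50 in retests scored well above the rest). The assay is labelled LdHisRS but filed under L. infantum. About 69,000 compounds were tested under these conditions; 0.6% (about 410) showed 50% or more at least once.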

Each number is a percent effect as filed.
The record does not define 0% and 100%; most values in the screen are far below 50% and negative numbers occur (in some assays of this library far below -100).
The compounds are a random part of those screened.
A dash means the value is not listed here; it may have been measured.

Result for Cc1ccccc1C(CC(=O)NCc1n[nH]c(N)n1)c1ccccc1 (configuration not stated) was A: 7.766%; C: 20.48%; D: 7.5%. Result for CN1CC(c2ccccc2)CC2(CCN(CC(=O)N(C)C)CC2)C1 (configuration not stated) was A: -3.974%; B: -40.35%; C: 39.32%; D: 20.95%. Result for Cc1nc(CCNC(=O)NCc2cccc(N(C)C)n2)cs1 was A: -7.774%; B: -1.366%; C: 21.4%; D: 3.509%. With COc1ccc(/C=C/CN2C[C@H]3CC[C@@H]2CN(S(=O)(=O)N(C)C)C3)cc1 the screen gave A: -0.6858%; B: 2.444%; D: 17.65%. With CC1CCCCN1CCN(C)C(=O)c1cc(CN2CCC(O)CC2)on1 (configuration not stated) the screen gave A: 3.252%; B: 4.733%; C: 16.29%; D: 10.75%. For Cn1ccnc1CN1CCC2(CC1)CN(Cc1cccnc1)C(=O)CO2 the result was A: 12.13%; B: -1.474%; D: 16.81%. With CN(C(=O)c1cc(Cl)c[nH]1)C1CCN(c2ccccn2)CC1 the screen gave A: 5.58%; B: 7.949%; C: 16.6%; D: 37.33%.

Cn1cc(C(=O)N[C@@H]2CN(Cc3cccnc3)[C@@H]3CCCO[C@@H]32)cn1 gave A: -9.998%; B: 9.121%; D: 22.86%. CC(=O)N(Cc1ncc(C)o1)C1CCN(Cc2ccncc2Cl)C1 (configuration not stated) read A: 16.56%; B: -5.128%; C: 31.13%; D: 21.33%. Cc1csc(N(C)C(=O)C2CC(=O)N(c3ccccc3Cl)C2)n1 (configuration not stated) gave A: 12.95%; B: 3.306%; C: -21.9%; D: -18.67%. Cc1cc(CC(=O)NC2CCCN(Cc3ccccc3)C2=O)n[nH]1 (configuration not stated) read A: -11.88%; B: -1.129%; C: 26.62%; D: 13.25%. O=C(NCCN1CCOCC1)C(OC1CCCC1)c1ccccc1 (configuration not stated) read A: -15.44%; B: 0.2484%; C: 39.12%; D: 0%. Result for COCc1cc(CN(C)C(C(=O)O)c2cc(C)c(OC)c(C)c2)n[nH]1 (configuration not stated) was A: -10.83%; B: 3.297%; C: -3.482%; D: -2.857%. Cc1cc(C(=O)NCc2ccnc(N3CCOCC3)c2)c(C)s1 read A: -22.17%; B: 2.558%; C: 24.04%; D: 16.51%.

Result for Cn1cc(CN2CC[C@@H](O)[C@@H]2Cc2ccccc2)cn1 was A: -4.705%; B: 3%; C: 45.77%; D: 20%. With c1cc(CNCc2ccnc(N3CCOCC3)c2)c2c(c1)OCO2 the screen gave A: 4.522%; B: 5.325%; D: 27.27%. Result for CC1CCCN(CCCNC(=O)c2cn(C)nc2-c2cccnc2)C1 (configuration not stated) was A: -9.969%; B: -12.34%; C: 44.1%; D: 6.494%. CC(C)N1CCC2(CCCN(c3nccc(C(F)(F)F)n3)C2)CC1.O=C(O)C(F)(F)F read C: 54.65%. With CN(C)C[C@H]1O[C@H](Cc2cc(-c3ccccn3)on2)CC[C@@H]1O the screen gave A: -19.77%; B: 4.194%; C: 12.8%; D: 19.44%.

Once more, the final 2:

| Compound | A | B | C | D |
|---|---|---|---|---|
| `CC(C)N1CCC2(CCCN(c3nccc(C(F)(F)F)n3)C2)CC1.O=C(O)C(F)(F)F` | - | - | 54.65 | - |
| `CN(C)C[C@H]1O[C@H](Cc2cc(-c3ccccn3)on2)CC[C@@H]1O` | -19.77 | 4.194 | 12.8 | 19.44 |